Laboratory results: PubChem BioAssay AID1508597 (Cure First, 2020)
Purpose: 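Knock-downs altering ovarian cancer cell survival with or without PARP inhibitor rucaparib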 (primary screen). System: human ovarian carcinoma lines grown from tumours: OCI-P5x (papillary serous) and OCI-C5x (clear cell). Reagents: siRNA pool against human genes, 1.25 pmol siRNA per well. Time to read-out: 72 h or 96 h, depending on the cell culture. Conditions: rucaparib 20 µM (about IC30) or vehicle, present until read-out. Read-out: 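Luminescent ATP-based viability assay read 72 or 96 h after transfection, depending on culture, given as normalised percent viability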. Scale: viability, normalised: higher = more viable cells remaining. Active means: 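a well counts as a hit if its normalised viability is under 80 percent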. Calls: active = viability under 80%; inactive = viability 80% or more.
This is an unselected part of about 2,100 reagents. 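Calls flag viability under 80% in either arm, not effects specific to rucaparib; the reference for percent is not stated.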 Unmarked entries are inactive. A reagent listed more than once was tested more than once; the source does not tell the runs apart. The record does not give: the 100% reference.

gene knocked down | rucaparib or vehicle | cell line | technical replicate | viability, normalised (%)
PHKA1 (phosphorylase kinase regulatory subunit alpha 1) | Rucaparib | OCI-C5x (clear cell) | 1 | 66 (active)
PHKA1 (phosphorylase kinase regulatory subunit alpha 1) | Rucaparib | OCI-C5x (clear cell) | 2 | 57.9 (active)
PHKA1 (phosphorylase kinase regulatory subunit alpha 1) | Rucaparib | OCI-C5x (clear cell) | 3 | 50.9 (active)
PHKA1 (phosphorylase kinase regulatory subunit alpha 1) | Rucaparib | OCI-P5x (serous) | 1 | 118
PHKA1 (phosphorylase kinase regulatory subunit alpha 1) | Rucaparib | OCI-P5x (serous) | 2 | 103
PHKA1 (phosphorylase kinase regulatory subunit alpha 1) | Rucaparib | OCI-P5x (serous) | 3 | 81.8
PHKA1 (phosphorylase kinase regulatory subunit alpha 1) | Vehicle | OCI-C5x (clear cell) | 1 | 88
PHKA1 (phosphorylase kinase regulatory subunit alpha 1) | Vehicle | OCI-C5x (clear cell) | 2 | 61.1 (active)
PHKA1 (phosphorylase kinase regulatory subunit alpha 1) | Vehicle | OCI-C5x (clear cell) | 3 | 59.9 (active)
PHKA1 (phosphorylase kinase regulatory subunit alpha 1) | Vehicle | OCI-P5x (serous) | 1 | 91.7
PHKA1 (phosphorylase kinase regulatory subunit alpha 1) | Vehicle | OCI-P5x (serous) | 2 | 93.3
PHKA1 (phosphorylase kinase regulatory subunit alpha 1) | Vehicle | OCI-P5x (serous) | 3 | 109
RALB (RAS like proto-oncogene B) | Rucaparib | OCI-C5x (clear cell) | 1 | 69.9 (active)
RALB (RAS like proto-oncogene B) | Rucaparib | OCI-C5x (clear cell) | 2 | 69 (active)
RALB (RAS like proto-oncogene B) | Rucaparib | OCI-C5x (clear cell) | 3 | 57.4 (active)
RALB (RAS like proto-oncogene B) | Rucaparib | OCI-P5x (serous) | 1 | 64.5 (active)
RALB (RAS like proto-oncogene B) | Rucaparib | OCI-P5x (serous) | 2 | 74.6 (active)
RALB (RAS like proto-oncogene B) | Rucaparib | OCI-P5x (serous) | 3 | 47.4 (active)
RALB (RAS like proto-oncogene B) | Vehicle | OCI-C5x (clear cell) | 1 | 92.4
RALB (RAS like proto-oncogene B) | Vehicle | OCI-C5x (clear cell) | 2 | 64.3 (active)
RALB (RAS like proto-oncogene B) | Vehicle | OCI-C5x (clear cell) | 3 | 48.3 (active)
RALB (RAS like proto-oncogene B) | Vehicle | OCI-P5x (serous) | 1 | 62.5 (active)
RALB (RAS like proto-oncogene B) | Vehicle | OCI-P5x (serous) | 2 | 57.6 (active)
RALB (RAS like proto-oncogene B) | Vehicle | OCI-P5x (serous) | 3 | 52.2 (active)
STK31 (serine/threonine kinase 31) | Rucaparib | OCI-C5x (clear cell) | 1 | 73.7 (active)
STK31 (serine/threonine kinase 31) | Rucaparib | OCI-C5x (clear cell) | 1 | 49.2 (active)
STK31 (serine/threonine kinase 31) | Rucaparib | OCI-C5x (clear cell) | 2 | 68.9 (active)
STK31 (serine/threonine kinase 31) | Rucaparib | OCI-C5x (clear cell) | 2 | 77.7 (active)
STK31 (serine/threonine kinase 31) | Rucaparib | OCI-C5x (clear cell) | 3 | 56.9 (active)
STK31 (serine/threonine kinase 31) | Rucaparib | OCI-C5x (clear cell) | 3 | 63 (active)
STK31 (serine/threonine kinase 31) | Rucaparib | OCI-P5x (serous) | 1 | 85.1
STK31 (serine/threonine kinase 31) | Rucaparib | OCI-P5x (serous) | 1 | 63.1 (active)
STK31 (serine/threonine kinase 31) | Rucaparib | OCI-P5x (serous) | 2 | 63 (active)
STK31 (serine/threonine kinase 31) | Rucaparib | OCI-P5x (serous) | 2 | 87.4
STK31 (serine/threonine kinase 31) | Rucaparib | OCI-P5x (serous) | 3 | 87.8
STK31 (serine/threonine kinase 31) | Rucaparib | OCI-P5x (serous) | 3 | 61.7 (active)
STK31 (serine/threonine kinase 31) | Vehicle | OCI-C5x (clear cell) | 1 | 75.2 (active)
STK31 (serine/threonine kinase 31) | Vehicle | OCI-C5x (clear cell) | 1 | 63.2 (active)
STK31 (serine/threonine kinase 31) | Vehicle | OCI-C5x (clear cell) | 2 | 56.2 (active)
STK31 (serine/threonine kinase 31) | Vehicle | OCI-C5x (clear cell) | 2 | 73.5 (active)
STK31 (serine/threonine kinase 31) | Vehicle | OCI-C5x (clear cell) | 3 | 50.1 (active)
STK31 (serine/threonine kinase 31) | Vehicle | OCI-C5x (clear cell) | 3 | 89.6
STK31 (serine/threonine kinase 31) | Vehicle | OCI-P5x (serous) | 1 | 85.8
STK31 (serine/threonine kinase 31) | Vehicle | OCI-P5x (serous) | 1 | 48.2 (active)
STK31 (serine/threonine kinase 31) | Vehicle | OCI-P5x (serous) | 2 | 83.6
STK31 (serine/threonine kinase 31) | Vehicle | OCI-P5x (serous) | 2 | 60.1 (active)
STK31 (serine/threonine kinase 31) | Vehicle | OCI-P5x (serous) | 3 | 80.7
STK31 (serine/threonine kinase 31) | Vehicle | OCI-P5x (serous) | 3 | 75.1 (active)
PCNA (proliferating cell nuclear antigen) | Rucaparib | OCI-C5x (clear cell) | 1 | 37.2 (active)
PCNA (proliferating cell nuclear antigen) | Rucaparib | OCI-C5x (clear cell) | 2 | 27.2 (active)
PCNA (proliferating cell nuclear antigen) | Rucaparib | OCI-C5x (clear cell) | 3 | 47.3 (active)
PCNA (proliferating cell nuclear antigen) | Rucaparib | OCI-P5x (serous) | 1 | 78.4 (active)
PCNA (proliferating cell nuclear antigen) | Rucaparib | OCI-P5x (serous) | 2 | 61.9 (active)
PCNA (proliferating cell nuclear antigen) | Rucaparib | OCI-P5x (serous) | 3 | 55.1 (active)
PCNA (proliferating cell nuclear antigen) | Vehicle | OCI-C5x (clear cell) | 1 | 49.7 (active)
PCNA (proliferating cell nuclear antigen) | Vehicle | OCI-C5x (clear cell) | 2 | 48.1 (active)
PCNA (proliferating cell nuclear antigen) | Vehicle | OCI-C5x (clear cell) | 3 | 39.5 (active)
PCNA (proliferating cell nuclear antigen) | Vehicle | OCI-P5x (serous) | 1 | 57.4 (active)
PCNA (proliferating cell nuclear antigen) | Vehicle | OCI-P5x (serous) | 2 | 53.5 (active)
PCNA (proliferating cell nuclear antigen) | Vehicle | OCI-P5x (serous) | 3 | 68.5 (active)

In a second layout: 10 of the entries above.
{"gene knocked down":"STK31 (serine/threonine kinase 31)","rucaparib or vehicle":"Vehicle","cell line":"OCI-P5x (serous)","technical replicate":"1","viability, normalised (%)":85.8}
{"gene knocked down":"STK31 (serine/threonine kinase 31)","rucaparib or vehicle":"Vehicle","cell line":"OCI-P5x (serous)","technical replicate":"1","viability, normalised (%)":"48.2 (active)"}
{"gene knocked down":"STK31 (serine/threonine kinase 31)","rucaparib or vehicle":"Vehicle","cell line":"OCI-P5x (serous)","technical replicate":"2","viability, normalised (%)":83.6}
{"gene knocked down":"STK31 (serine/threonine kinase 31)","rucaparib or vehicle":"Vehicle","cell line":"OCI-P5x (serous)","technical replicate":"2","viability, normalised (%)":"60.1 (active)"}
{"gene knocked down":"STK31 (serine/threonine kinase 31)","rucaparib or vehicle":"Vehicle","cell line":"OCI-P5x (serous)","technical replicate":"3","viability, normalised (%)":80.7}
{"gene knocked down":"STK31 (serine/threonine kinase 31)","rucaparib or vehicle":"Vehicle","cell line":"OCI-P5x (serous)","technical replicate":"3","viability, normalised (%)":"75.1 (active)"}
{"gene knocked down":"PCNA (proliferating cell nuclear antigen)","rucaparib or vehicle":"Rucaparib","cell line":"OCI-C5x (clear cell)","technical replicate":"1","viability, normalised (%)":"37.2 (active)"}
{"gene knocked down":"PCNA (proliferating cell nuclear antigen)","rucaparib or vehicle":"Rucaparib","cell line":"OCI-C5x (clear cell)","technical replicate":"2","viability, normalised (%)":"27.2 (active)"}
{"gene knocked down":"PCNA (proliferating cell nuclear antigen)","rucaparib or vehicle":"Rucaparib","cell line":"OCI-C5x (clear cell)","technical replicate":"3","viability, normalised (%)":"47.3 (active)"}
{"gene knocked down":"PCNA (proliferating cell nuclear antigen)","rucaparib or vehicle":"Rucaparib","cell line":"OCI-P5x (serous)","technical replicate":"1","viability, normalised (%)":"78.4 (active)"}
